Test results from patent US12589101B2 (Regeneron Pharmaceuticals, Inc., priority 2017, dated 2026).

Assay: general procedure: solution-phase peptide synthesis; HOBt/DIPEA
Conditions: conjugation step

{4-[(2S)-2-[(2S)-2-[1-(4-{2-Azatricyclo[10.4.0.0^4,9]hexadeca-1(12),4(9),5,7,13,15-hexaen-10-yn-2-yl}-4-oxobutanamido)-3,6,9,12-tetraoxapentadecan-15-amido]-3-methylbutanamido]-5-(carbamoylamino)pentanamido]phenyl}methyl N-[(1S)-1-{[(1S)-1-{[(3R,4S,5S)-1-[(2S)-2-[(1R,2R)-2-{[(1S,2R)-1-hydroxy-1-phenylpropan-2-yl]carbamoyl}-1-methoxy-2-methylethyl]pyrrolidin-1-yl]-3-methoxy-5-methyl-1-oxoheptan-4-yl](methyl)carbamoyl}-2-methylpropyl]carbamoyl}-2-methylpropyl]-N-methylcarbamate
final HPLC purity: 98%
